The campaign covered roughly 300,000 compounds. About 5,200 (1.7%) were called active. This list was built around the results that the source calls inconclusive (neither active nor inactive); the mix of calls is not that of the screen.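 Rule for the calls: active = mean replicate activation of at least 50% with a set share of replicates each reaching 50%; inconclusive = only one of those two conditions met; inactive = mean below 50% and too few replicates reaching it.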
Assay: HSF-1 activators, primary screen, NIH3T3-HGL cells, MG132 stress, luminescence, single point (AID 504408);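 note: 0% = median of the neutral control wells and 100% = twice that signal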
Details: NIH3T3-HGL HSF-1 luciferase reporter, MG132, 8 h; at 9 µM; stronger effect = higher value; 100% = twice DMSO control signal

activation, inactive:
COCCCNS(=O)(=O)c1cc2c3c(c1)C(C)C(=O)N3CCC2 (centres undefined) 10.1%
COc1ccc(-n2c(CCc3ccccc3)nnc2SCC(=O)c2ccc(Cl)cc2)cc1 45.6%
CC(C)Cn1c(=S)[nH]c2cc(Cl)ccc21 -10%
CCN(CC)c1ccc(S(=O)(=O)N2CCOCC2)cc1NC(=O)COC(=O)c1cccnc1SC -3.97%
COc1ccc(/C=N\NC(=O)COc2ccccc2)c(C(=O)O)c1OC 8.54%
CC(C)(CO)Nc1nc(N2CCCC2)nc(N2CCCC2)n1 0.662%
COc1ccc(-c2cn(Cc3ccc([N+](=O)[O-])cc3)nn2)cc1 15.7%
COc1ccc(-n2nc([N+](=O)[O-])c(=NCCc3ccc(C)cc3)n2O)cc1 15.9%
CCc1ccc(C(O)(c2ccccc2OC)C(CN2CCOCC2)c2ccccc2)cc1 (centres undefined) -5.07%
Cc1ccc2[nH]c(=O)c(COC(=O)c3cccs3)cc2c1 -11.7%

activation, active:
CC(=O)c1sc(N/N=C/c2ccc(C(C)C)cc2)nc1C 59.6%
COC(=O)C1=NN(C(=O)c2ccc(Cl)cc2)C(O)(c2ccccc2)C1 (centres undefined) 142%
Cc1ccc(O)c(C(=O)c2cnc3c(c2)CN(CCC(C)C)C(=O)N3)c1 120%
CCOc1cc(/C=C\c2[nH]c(=O)[nH]c(=O)c2[N+](=O)[O-])ccc1OC(C)CC (centres undefined) 63.9%
O=C(c1ccco1)N1CCN(c2ccc(Cl)c(Cl)c2)CC1 99%
Cc1ccc2nc(NCc3ccccc3)c(C=O)c(=O)n2c1 90.3%
O=c1oc2ccccc2cc1-c1csc(Nc2ccc(O)cc2)n1 125%
Cc1cc(C)nc(S/C=C/C(=O)c2ccccc2F)n1 189%
O=c1c(Cl)c(O)c2cccc3c4ccccc4n1c23 78.5%
Cc1ccc(N2C(=O)[C@@H]3C(C(=O)C(c4ccccc4)c4ccccc4)=NN[C@@H]3C2=O)cc1 52.8%
Cc1nnnn1/C(=C\c1ccccc1)C(=O)OCC(=O)NC1CCCCC1 78%
Cc1ccc(-n2nc3c(=O)n(C(C)C(=O)NCc4ccccc4Cl)nc(C)c3c2C)cc1 (centres undefined) 68.6%

activation, inconclusive:
Cc1ccc(NC(=S)N/N=C/c2ccc([N+](=O)[O-])s2)cc1 69.2%
Cc1cc(C)n(-c2ccc(C(=O)Nc3sccc3C(N)=O)cc2)n1 52.6%
Cc1ccc(NC(=O)C2CCCN(c3nccc(C)n3)C2)c(C)c1 (centres undefined) 51%
COCCNC(=O)c1cccc(OC2CCN(Cc3ccc(Cl)c(F)c3)CC2)c1 56.4%
CCN(CC)C(=O)c1ccc(C)c(Br)c1 54.8%
CCc1[nH]c(=O)c(C#N)c2c1CSC(C)(C)C2 59.8%
COc1cc(/C=C/C(=O)OCc2c(C)noc2C)ccc1OC(F)F 64.9%
O=c1/c(=C\c2ccc3c(c2)OCO3)sc2n1CCCN=2 50.6%
O=C(OCC(=O)c1cccc2ccccc12)c1ccc(CO)cc1 52.4%
C=CCC(NCc1ccco1)c1ccc(OC)c(OC)c1 (centres undefined) 52.6%
O=C(COC(=O)c1ccccc1C(=O)c1ccccc1)NCc1ccc(F)cc1 50.3%
CCCCCc1ccc(-c2nnc(N)s2)cc1 52.5%
CC(=O)c1ccc(N2Cc3ccccc3C2)cc1 50.9%
COc1ccc(NS(=O)(=O)c2cc(NC(=O)c3cnccn3)ccc2N2CCCC2)cc1 54.3%
CCCOc1ncnc2c1[nH]c1ccc(C)cc12 51.1%
COc1cc(-c2nnn(CC#N)n2)ccc1OCc1ccccc1 54.7%
N#C/C(Cn1c[n+](NC(=O)Nc2ccccc2)cn1)=N/O 50.2%
NC(=O)c1ccccc1NC(=O)/C=C/C(=O)O 65.8%
CCNC(=O)C(=O)NCc1ccncc1 53.1%
CC(NC(=O)c1ccc([N+](=O)[O-])o1)C12CC3CC(CC(C3)C1)C2 (centres undefined) 50.1%
COc1cc2c(cc1OC)CN(C(=O)Cc1ccccc1)CC2 74.6%
CCOC(=O)c1c(N)n(CCOC(=O)c2cccs2)c2nc3ccccc3nc12 52.5%
N#CC1=C(N)SC(N)=C(C#N)C1c1c(Cl)cccc1Cl 54%
O=C(Nc1nccs1)c1ccc(-c2ccc(Cl)cc2Cl)o1 52.7%
S=C(NCCc1ccccc1)NC1CCCCCC1 53.7%
CC(=O)OC1CC(C)(C)N(OC(=O)c2ccc(N)cc2)C(C)(C)C1 54.2%
CCc1ccc(Nc2n[n+](-c3ccccc3)c(/C=C/c3ccccc3)s2)cc1 51.6%
Clc1ccc(OCc2cn3ccccc3n2)c2ncccc12 54.1%
CC1(C)CCC(=O)N2CC[C@H]3C[C@H](OC(=O)Nc4ccc(Br)cc4)C[C@@H]1[C@H]32 55.3%
C=CCSc1nnc(N2C(=O)C(O)=C(C(=O)c3ccco3)C2c2ccc(F)cc2)s1 (centres undefined) 52.1%
CCN(CC)c1ncnc2scc(C3COc4ccccc4O3)c12 (centres undefined) 50.6%
CN(C)CCn1c2ccccc2c2nc3ccc([N+](=O)[O-])cc3cc21 51.3%
Cc1ccc(C2=NN(S(=O)(=O)c3ccccc3)C(c3ccccc3O)C2)cc1 (centres undefined) 56.6%
Cc1ccc(NC(=S)N(Cc2cccs2)Cc2cc3cc(C)ccc3[nH]c2=O)cc1 53.2%
O=C(c1cnsn1)N1CCC(CO)(Cc2cccc(F)c2)CC1 54.8%
CCOC(=O)CSC1=NC(=O)/C(=C\c2ccc(Cl)cc2)S1 54.1%
O=C1c2ccccc2-c2n[nH]c(=O)c3ccc(N4CCCCC4)c1c23 51.9%

Nothing new here: an excerpt of the list.
activation, inconclusive:
N#C/C(Cn1c[n+](NC(=O)Nc2ccccc2)cn1)=N/O 50.2%
NC(=O)c1ccccc1NC(=O)/C=C/C(=O)O 65.8%
CCNC(=O)C(=O)NCc1ccncc1 53.1%
CC(NC(=O)c1ccc([N+](=O)[O-])o1)C12CC3CC(CC(C3)C1)C2 (centres undefined) 50.1%

— PubChem BioAssay AID504408 (Broad Institute, 2011)
